pEC50: −log10 of the molar value. The structures given here were assigned with low confidence; some may be wrong.
Legend:
human TLR7 = human TLR7 (Homo sapiens, UniProt Q9NYK1); assay: HEK-Blue human TLR7 cell SEAP reporter assay (NF-κB activation); conditions: read-out: human TLR7 EC50, HEK-Blue human TLR7 cells, stimulation for 20 hours, Quanti Blue read at 640 nm
Source text: (§1) For TLR8 and TLR7 activity testing, HEK-Blue human TLR8 or TLR7 cells (Invivogen, San Diego, Calif., USA) are used, respectively. These cells are designed for studying the stimulation of human TLR8 or TLR7 by monitoring the activation of NF-κB. A SEAP (secreted embryonic alkaline phosphatase) reporter gene is placed under the control of the IFN-b minimal promoter fused to five NF-κB and AP-1-binding sites. Therefore the reporter expression is regulated by the NF-κB promoter upon stimulation of human TLR8 or TLR7 for 20 hours. The cell culture supernatant SEAP reporter activity was determined using Quanti Blue kit (Invivogen, San Diego, Ca, USA) at a wavelength of 640 nm, a detection medium that turns purple/blue in the presence of alkaline phosphatase. EC50 values were determined using Activity Base analysis (ID Business Solution, Limited).

Amino acid sequences for entries named in this document (tags omitted). Residues count along the entry.
UniProt Q9NYK1, 27-1049 limits assumed: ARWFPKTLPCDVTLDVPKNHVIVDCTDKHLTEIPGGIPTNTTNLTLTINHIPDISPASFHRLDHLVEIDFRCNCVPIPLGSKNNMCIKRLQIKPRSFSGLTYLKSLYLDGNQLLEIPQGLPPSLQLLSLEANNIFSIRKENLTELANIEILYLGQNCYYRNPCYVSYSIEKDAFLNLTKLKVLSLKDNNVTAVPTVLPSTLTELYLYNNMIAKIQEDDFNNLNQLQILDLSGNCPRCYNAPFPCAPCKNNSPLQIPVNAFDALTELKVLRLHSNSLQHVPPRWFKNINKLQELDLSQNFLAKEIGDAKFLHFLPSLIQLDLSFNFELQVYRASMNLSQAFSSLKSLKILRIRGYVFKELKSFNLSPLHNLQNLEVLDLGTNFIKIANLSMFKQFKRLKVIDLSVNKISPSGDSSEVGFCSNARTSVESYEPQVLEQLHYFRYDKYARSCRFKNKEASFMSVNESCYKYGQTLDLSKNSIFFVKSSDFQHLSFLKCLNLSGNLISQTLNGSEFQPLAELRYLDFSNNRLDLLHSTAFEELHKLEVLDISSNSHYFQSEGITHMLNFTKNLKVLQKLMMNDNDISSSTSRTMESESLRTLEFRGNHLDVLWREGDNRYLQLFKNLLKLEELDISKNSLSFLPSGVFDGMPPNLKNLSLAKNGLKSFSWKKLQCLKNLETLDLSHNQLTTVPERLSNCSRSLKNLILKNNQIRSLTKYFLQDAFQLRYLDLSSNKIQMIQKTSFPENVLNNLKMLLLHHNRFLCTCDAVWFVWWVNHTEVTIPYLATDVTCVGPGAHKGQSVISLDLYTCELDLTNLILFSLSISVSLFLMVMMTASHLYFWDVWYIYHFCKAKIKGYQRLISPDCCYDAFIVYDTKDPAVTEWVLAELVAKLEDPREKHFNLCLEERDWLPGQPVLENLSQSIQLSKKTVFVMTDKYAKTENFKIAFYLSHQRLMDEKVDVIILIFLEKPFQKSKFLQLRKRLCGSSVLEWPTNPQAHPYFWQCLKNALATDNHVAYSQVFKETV
UniProt Q9NR97, 27-1041 limits assumed: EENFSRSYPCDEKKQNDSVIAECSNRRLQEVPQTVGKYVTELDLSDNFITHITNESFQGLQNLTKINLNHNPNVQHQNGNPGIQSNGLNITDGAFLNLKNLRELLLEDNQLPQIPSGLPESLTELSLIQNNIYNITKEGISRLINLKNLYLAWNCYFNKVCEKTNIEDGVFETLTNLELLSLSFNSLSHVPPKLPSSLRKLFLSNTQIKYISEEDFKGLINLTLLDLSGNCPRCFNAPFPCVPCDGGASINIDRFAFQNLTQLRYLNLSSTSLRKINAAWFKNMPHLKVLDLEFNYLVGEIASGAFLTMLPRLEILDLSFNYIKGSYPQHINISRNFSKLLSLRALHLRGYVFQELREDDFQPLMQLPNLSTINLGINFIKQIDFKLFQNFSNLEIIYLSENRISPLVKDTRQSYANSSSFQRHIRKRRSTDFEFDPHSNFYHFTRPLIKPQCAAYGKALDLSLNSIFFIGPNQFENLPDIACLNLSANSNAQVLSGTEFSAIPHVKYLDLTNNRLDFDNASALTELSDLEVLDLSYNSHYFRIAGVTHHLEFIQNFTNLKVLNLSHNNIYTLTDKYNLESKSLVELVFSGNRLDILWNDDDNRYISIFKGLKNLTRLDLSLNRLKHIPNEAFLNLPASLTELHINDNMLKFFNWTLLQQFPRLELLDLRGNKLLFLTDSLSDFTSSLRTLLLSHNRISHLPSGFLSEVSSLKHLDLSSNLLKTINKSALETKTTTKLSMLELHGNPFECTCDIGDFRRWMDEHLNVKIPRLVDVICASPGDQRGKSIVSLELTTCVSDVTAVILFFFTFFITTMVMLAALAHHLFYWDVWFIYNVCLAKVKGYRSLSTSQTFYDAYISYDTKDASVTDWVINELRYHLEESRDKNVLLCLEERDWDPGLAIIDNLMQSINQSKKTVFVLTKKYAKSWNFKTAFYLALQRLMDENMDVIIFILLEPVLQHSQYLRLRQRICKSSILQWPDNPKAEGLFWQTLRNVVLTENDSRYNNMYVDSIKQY

IFNα = assay: PBMC cytokine profiling assay, IFNα induction; format: cell-based; conditions: read-out: IFNα AC50; human PBMCs, 24 hours incubation
Method: (§2) Compounds were dissolved and stored in DMSO (Sigma-Aldrich, St. Louis, Mo.) at 10 mM concentration.
(§3) Cryopreserved human PBMCs isolated from healthy donors were purchased from StemCell Technologies (Vancouver, Canada). Cell culture medium used was RPMI with L-Glutamine (Mediatech, Manassas, Va.) supplemented with 10% fetal bovine serum (Hyclone, GE Healthcare, Logan, Utah) and Penicillin-Streptomycin (Mediatech). Human TNFα, IL12p40, and IFNα2a 384-well Assay capture plates, standards, buffers and processing reagents were obtained from MesoScale Discovery Technologies (MSD; Rockville, Md.).
(§4) Cryopreserved human PBMCs (1×10e8 cells/ml) were thawed at 37° C. and resuspended in 25 mL warm cell culture medium. The cells were pelleted at 200×g (Beckman Avanti J-E) for 5 min and resuspended in 20 mL of fresh culture media. Cells were counted using a Cellometer (Nexcelcom Bioscience), adjusted to 2×10e6 cells, and incubated for 2 hours in an incubator set at 37° C., 5% CO2 to recover from cryopreservation. […]
(§5) Using a Biomek FX 384 well pipetting station (Beckman), conditioned culture medium (CCM) from the assay plate was transferred to MSD capture plates customized for each cytokine. […] MSD Read Buffer diluted to 2× in deionized water and 35 μL/well was added via Biomek FX instrument. The plates were read immediately in a MSD6000 reader. […]

human TLR8 = human TLR8 (Homo sapiens, UniProt Q9NR97); assay: HEK-Blue human TLR8 cell SEAP reporter assay (NF-κB activation); conditions: read-out: human TLR8 EC50, HEK-Blue human TLR8 cells, stimulation for 20 hours, Quanti Blue read at 640 nm
Source text: as §1

TNFα = assay: PBMC cytokine profiling assay, TNFα induction; format: cell-based; conditions: read-out: TNFα AC50; human PBMCs, 24 hours incubation
Method: as §2, §3, §4, §5

IL12p40 = assay: PBMC cytokine profiling assay, IL12-p40 induction; format: cell-based; conditions: read-out: IL12p40 AC50; human PBMCs, 24 hours incubation
Method: as §2, §3, §4, §5

Structure (SMILES): CCCN(CCC)C(=O)C1=Cc2ccc(C3=NCc4cc(OC)ccc4N3)cc2N=C(N)C1
- pEC50 (human TLR7): < 4.00
- AC50 (IFNα): 6.9 µM
- pEC50 (human TLR8): 8.70
- AC50 (TNFα): 10.1 µM
- AC50 (IL12p40): 6 µM
